In paper PMC4144766 one finds binding data, which are given here for 1 substance.

In the assay the target is TaNPSN11 fragment without the trans-membrane region (yeast two-hybrid bait) (Triticum aestivum (common wheat)) (UniProt J7JVJ9). Nature of the assay: two-hybrid; Matchmaker yeast two-hybrid system, yeast strain AH109; baits in pGBK7, preys in pGADT7, co-transformed in pairs; tested on SD-Trp-Leu-His and SD-Trp-Leu-His-Ade plates.

Results are given in words; binding and its absence hold for the method and conditions named. Binding can be weak; no strength is given.

In the case of “TaSYP132 fragment without the trans-membrane region (yeast two-hybrid prey) (from UniProt A0ACM8QMH2) (domain or fragment)”, the binding result was “binds”.
